Values joined by “and” are separate entries in the source; they are usually repeats but may differ in a detail not shown here. Identical values can stand only once. Not every detail of the peptide structures is certain; ends, links or a residue may be inferred.
System: ADP (1 × 10^-5 M)-induced platelet aggregation
Assay: Inhibition of ADP-induced platelet aggregation
Format: cell-based
Procedure: The effect of these peptides on ADP-induced platelet aggregation was determined and compared with peptide RGDS which is known to inhibit platelet aggregation.

N=C(N)NCCC[C@H](N)C(=O)NCC(=O)N[C@@H](CC(=O)O)C(=O)N[C@@H](CO)C(=O)O [RGDS, Arg-Gly-Asp-Ser]
percentage inhibition of ADP-induced platelet aggregation (peptide 0.1 mM): 40% and 37%
percentage inhibition of ADP-induced platelet aggregation (peptide 0.2 mM): 70% and 65%
percentage inhibition of ADP-induced platelet aggregation (peptide 0.4 mM): 86% and 80%
